Assay [1] deals with HepG2. In words: Cytotoxic activity against human HepG2 cells by MTT assay. The format is functional, cell-based. The procedure, abridged: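 Adherent cancer cell lines, viability read by MTT assay. Doxorubicin served as reference drug for A549, HepG2 and HuCCA-1, and etoposide also for HepG2. IC50 determined.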
In assay [2] the test system is A549. In words: cells. Particulars: Homo sapiens.
The subject of assay [3] is Candida albicans. The assay can be described thus: microbe, parasite or virus in culture. Particulars: 20 h.

In brackets after ≈: the same amount, converted by molar mass.

The values below come from ChEMBL document CHEMBL4020704, “Metabolite diversification by cultivation of the endophytic fungus Dothideomycete sp. in halogen containing media: Cultivation of terrestrial fungus in seawater” (Bioorg Med Chem, 2017).

What is called IC50 is the concentration that gives 50% inhibition. Lower therefore signals higher potency.

Regarding `COc1cccc2c1C(=O)c1c(O)c3c(c(O)c1C2=O)C[C@@](O)(C(=O)CO)C[C@@H]3O[C@H]1C[C@H](N)[C@H](O)[C@H](C)O1` [DOXORUBICIN], the values for the IC50 in assay [1] and in assay [2] were 0.22 µg/mL (≈ 0.405 µM) and 0.27 µg/mL (≈ 0.497 µM), respectively.

Turning to `C[C@@H]1[C@H](O)[C@@H](C)/C=C/C=C/C=C/C=C/C=C/C=C/C=C/[C@H](O[C@@H]2O[C@H](C)[C@@H](O)[C@H](N)[C@@H]2O)C[C@@H]2O[C@](O)(C[C@@H](O)C[C@@H](O)[C@H](O)CC[C@@H](O)C[C@@H](O)CC(=O)O[C@H]1C)C[C@H](O)[C@H]2C(=O)O` [AMPHOTERICIN B], the MIC in assay [3] amounted to 0.78 µg/mL (≈ 0.844 µM).
